Measurements as given in patent US8367602B2, “Consensus peptides and a method for inducing biomineralization” (Corticalis AS, priority 2006, dated 2013).
Where “and” joins values, the source holds several entries; their conditions need not be identical. Equal values may be shown once. Not every detail of the peptide structures is certain; ends, links or a residue may be inferred. Ends that are not written are not given here.

Key:
[1] = Mineral precipitation (mfu by SEM) on peptide-coated titanium dental implants, Example 2
[2] = Isoelectric point (pI) of the peptide; format: physicochemical
[3] = tested on: runx2, osteocalcin and TRAP; assay: In vivo gene expression of bone markers in peri-implant bone tissue (real-time RT-PCR), tresyl chloride coupled peptide, Example 5; parameters: species or system rabbits (New Zealand White); details: 4 weeks, vs control implants, tresyl chloride coupling
[4] = tested on: runx2, osteocalcin and TRAP; assay: In vivo gene expression of bone markers in peri-implant bone tissue (real-time RT-PCR), physically adsorbed peptide, Example 6; parameters: species or system rabbits (New Zealand White); details: 4 weeks, vs control implants, physical adsorption

**Q.** With “PLVPSQPLVPSQPLVPSQPQPPLPP [SEQ ID NO 4, PLV PSQ PLV PSQ PLV PSQ PQP PLPP]” as the sequence, how does the “Number of mineral forming units (mfu) per square mm on implant surfaces” value ([1]; individual peptide coated dental implants, saturated calcium phosphate solution, 24 hours at 25 degrees Celsius) read?
**A.** 5788 mfu mfu per square mm and 8772 mfu mfu per square mm and 7543 mfu mfu per square mm and 8031 mfu mfu per square mm and 7220 mfu mfu per square mm and 8905 mfu mfu per square mm and 6775 mfu mfu per square mm and 6566 mfu mfu per square mm

**Q.** And the “Number of mineral forming units (mfu) per square mm on implant surfaces, mean values” ([1]; mean of peptide coated implants (n = 8))?
**A.** 7450 mfu mfu per square mm

**Q.** And the “number of mineral deposition foci versus controls” value ([1]; peptide coated titanium implants vs controls without peptide)?
**A.** significantly (p<0.01) increased

**Q.** What about the pI [2] of the same sequence?
**A.** 5.55

**Q.** What about the TRAP expression [3] of the same sequence?
**A.** decrease

**Q.** And the osteocalcin expression [3]?
**A.** significant increase

**Q.** What about the Runx2 expression [4] of the same sequence?
**A.** significant increase

**Q.** What about the TRAP expression [4] of the same sequence?
**A.** decrease

**Q.** And the osteocalcin expression [4]?
**A.** significant increase
